These are yes or no findings as the source states them, for the method shown. Binding can be weak; no strength is given. Sequences can lack the tags named with a protein.
Biological target: polymerized microtubules from purified bovine brain α/β-tubulin (bovine)
Test: co-sedimentation; in vitro microtubule co-sedimentation: bovine brain α/β-tubulin (5 μM) and GST–CEP295 fragments in RG1 buffer (80 mM PIPES pH 6.8, 1 mM EGTA, 1 mM MgCl2, 1 mM GTP) with 15 μM Taxol, 37°C; 50% glycerol cushion; 300,000 g, 30 min, 37°C; SDS-PAGE, Coomassie Blue; both purified

B1: GST–K6C (CEP295 residues 2472–2601) (domain or fragment, UniProt Q9C0D2 2472-2601)
chain: LTPVPGSLQEAFIKRKKSFMERSHQRQKEIRNKIHVSENSQIKTVKEKPSISSSVSRLKGVNKVRASFPEDRKTTQALRHQRGLRLYNQLAEVKQQKEEKTKQEAYAQNRARAKEFHKKTLEKLRAKNTC
binding: binds

Reference: PMC4958302
